Test results as given in PubChem BioAssay AID1273 (Columbia University Molecular Screening Center, 2008).
The other results are listed elsewhere or left out. Shown are side measurements of this screen, not its main read-out; they come without a call. The list favours compounds with an active or inconclusive main result.

Experiment: inhibitors of insulin promoter-driven GFP, primary screen, imaging, TRM-6 cells (human fetal islet line), eGFP reporter, cell count (AID 1273;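 further: cells exposed to compound for 48 h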)
Conditions: measured here: cell count, toxicity, at 2 µM, reporter expression induced with tamoxifen

| Structure (SMILES) | normalized cell count |
| --- | --- |
| CCOC(=O)c1ccc(NS(=O)(=O)c2cc(-c3nnnn3CC)ccc2OC)cc1 | 149% |
| CC1=CC(=O)C=C(C)C1=NOc1ccc([N+](=O)[O-])cc1 | 25.7% |
| O=[N+]([O-])C(C1CCS(=O)(=O)C1)C1CCS(=O)(=O)C1 (stereo not drawn) | 47.7% |
| Cc1ccc(NC(=O)CSc2ccccn2)cc1S(=O)(=O)N1CCOCC1 | 70.8% |
| Cc1cc(C)nc(N2CCCC(C(=O)Nc3ccc4c(c3)OCO4)C2)n1 (stereo not drawn) | 187% |
| Fc1cccc(F)c1CSc1nc2ccccc2[nH]1 | 174% |
| CC(=O)NC1=NN(C(C)=O)C(c2ccc(F)cc2)S1 (stereo not drawn) | 70.3% |
| CCOC(=O)C1CCN(c2ncnc3nc[nH]c23)CC1 | 113% |
| COc1ccc2ccccc2c1C(=O)/C=C\c1ccoc1 | 64.8% |
| c1ccc2c(c1)Cn1c-2nc2ccccc21 | 80% |
| O=C1OC(N2CCN(C/C=C/c3ccccc3)CC2)c2ccccc21 (stereo not drawn) | 53.5% |
| CCOC(=O)c1c(NC(=O)CCl)sc(C(=O)N(CC)CC)c1C | 79.1% |
| Cc1ccnc(N2CCN(c3c4c(c(C#N)c5nc6ccccc6n35)CCC4)CC2)c1 | 130% |
| Clc1nnc(NN=C2CCCC2)c2ccccc12 | 100% |
| CCn1cc(C2=NC(C)CO2)c2ccccc21 (stereo not drawn) | 221% |
| COc1ccc(C(C(=O)NCc2ccccc2)N(Cc2ccc3c(c2)OCO3)C(=O)c2cnccn2)cc1 (stereo not drawn) | 92.2% |
| Cc1cc(C)n2nc(N)c(N=Nc3cccc(Cl)c3)c2n1 | 176% |
| CSc1nc2ccccc2n1C(=O)Oc1ccccc1 | 99.3% |
| CCc1nc(OCCN(C)C)c2oc3ccccc3c2n1 | 105% |
| COc1ccc(N(C(=O)CCl)C(C)(C(=O)Nc2c(C)cccc2C)c2ccccn2)cc1 (stereo not drawn) | 121% |
| Nc1cccc(-c2nc3ccccc3[nH]2)c1 | 54.4% |
| CCN(CC)CCN(C(=O)c1ccc2c(c1)CCCC2)c1nc2ccc(F)cc2s1 | 85.5% |
| Cc1ccccc1/C=N/Nc1ccnc2cc(Cl)ccc12 | 199% |
| Cc1cccc(NC2=C(NCCO)C(=O)c3ccccc3C2=O)c1 | 83.5% |
| CCOc1ccc(S(=O)(=O)Nc2ccncc2)c(C)c1C | 133% |

Molecules above containing an NH in an aromatic ring (three):

| Structure (SMILES) | normalized cell count |
| --- | --- |
| Fc1cccc(F)c1CSc1nc2ccccc2[nH]1 | 174% |
| CCOC(=O)C1CCN(c2ncnc3nc[nH]c23)CC1 | 113% |
| Nc1cccc(-c2nc3ccccc3[nH]2)c1 | 54.4% |

Reprinted at random: two entries already listed, in no set order.

| Structure (SMILES) | normalized cell count |
| --- | --- |
| CCOC(=O)c1ccc(NS(=O)(=O)c2cc(-c3nnnn3CC)ccc2OC)cc1 | 149% |
| Cc1ccnc(N2CCN(c3c4c(c(C#N)c5nc6ccccc6n35)CCC4)CC2)c1 | 130% |

Later entries.

| Structure (SMILES) | normalized cell count |
| --- | --- |
| CCCn1c(SCC(=O)N2CCc3ccccc32)nnc1-c1ccco1 | 56.6% |
| O=C(CS(=O)(=O)c1ccccc1)Nc1nc(-c2ccc(F)cc2)cs1 | 212% |
| Cc1cc(C)n(-c2cc(Cl)ccc2[N+](=O)[O-])n1 | 99.7% |
| CCCN=C1CC(C)(C)CC(=O)/C1=C(/O)CCCN1C(=O)c2ccccc2C1=O | 52.3% |
| Cn1c(=O)n(C)c2cc([N+](=O)[O-])c(N3CCN(C(=O)C(C)(C)C)CC3)cc21 | 125% |
| O=C(NCC1CCCO1)c1c(O)c2cccc3c2n(c1=O)CCC3 (stereo not drawn) | 91.1% |
| O=c1c2c(nc3nc(Cc4ccccc4)[nH]n13)CCC2 | 73.9% |
| COc1cccc(N2C(C(C)=O)=NN(c3ccccc3)C2c2ccc(N3CCOCC3)cc2)c1 (stereo not drawn) | 119% |
| CNS(=O)(=O)c1ccc(Oc2ccc(S(=O)(=O)NC)cc2)cc1 | 140% |
| Cc1cc(C)c2nc(NNC(=O)c3cc(-c4cccs4)nc4ccccc34)sc2c1 | 144% |
| Brc1ccc(-c2cn3ccccc3n2)s1 | 156% |
| Cc1ccc(NC(=O)Nc2cccs2)cc1 | 136% |
| Cn1c(Cc2ccccc2)nnc1SCC(=O)c1ccc(Br)s1 | 108% |
| C=CCc1cccc(CNc2c(C)n(C)n(-c3ccccc3)c2=O)c1O | 44.2% |
| CSc1nc(-c2ccc(Cl)cc2)nn1S(=O)(=O)c1ccc(Cl)cc1 | 146% |
| Cc1ccnc2nc(C(=O)OCC(=O)NCCc3ccccc3)nn12 | 129% |
| COc1ccc(Nc2nnc(Cc3ccccc3)c(=O)[nH]2)c(OC)c1 | 117% |
| CSC1=NCCN1S(=O)(=O)c1ccc(C)cc1 | 80.9% |
| CCC(=O)n1nc(-c2ccccc2)nc1NCc1ccccc1 | 101% |
| CCN(CC)S(=O)(=O)c1ccc2nc(SC)sc2c1 | 135% |
| Cc1ccc2nc(-c3cccc(N)c3)[nH]c2c1 | 154% |
| CNC(=O)c1ccsc1NC(=O)CCS(=O)(=O)c1ccccc1 | 80% |
| NC(=O)c1c(C(F)(F)F)cc(-c2ccccc2)nc1NCCO | 128% |
| NC(=O)c1cccnc1Nc1cccc(F)c1 | 150% |
| C=C(C)CSCc1nc2ccccc2[nH]1 | 178% |

| Structure (SMILES) | normalized cell count |
| --- | --- |
| C=C(C)C1CC=C(C)/C(=N/NC(=O)c2ccc(NC(=O)CCC)cc2)C1 (stereo not drawn) | 106% |
| COc1cc(/C=C(\C#N)C(=O)NCC2CCCO2)ccc1OC(C)C (stereo not drawn) | 119% |
| Nc1c(C(=O)C2CC2)sc2nc(-c3ccccc3)cc(C(F)(F)F)c12 | 98.6% |
| CCC(C)NC(=O)c1ccccc1NC(=O)COc1ccc(OC)cc1 (stereo not drawn) | 20.9% |
| COc1ccccc1/C=N/NC(=O)c1ccc(NC(=O)c2ccccc2Br)cc1 | 72.7% |
| Cc1ccc(NCc2ccc(O)c3ncccc23)cc1C | 105% |
| Cc1nc2c([nH]c3ccc(Br)cc32)s1 | 131% |
| COC(=O)COc1ccc(S(=O)(=O)Nc2ccccc2SC)cc1 | 110% |
| O=c1[nH]c2ccc(Cl)cc2c(O)c1Cc1ccccc1 | 102% |
| CC(C)Nc1nc(NC(C)C)nc(N(C)C#N)n1 | 111% |
| CCOC(=O)Nc1ccc2c(c1)N(C(=O)CCN1CCN(CCO)CC1)c1ccccc1S2 | 107% |
| CCOC(=O)/C=c1\s/c(=C\c2ccc(C)cc2)c(=O)n1CC(=O)NCc1ccco1 | 210% |
| O=C(COC(=O)CC12CC3CC(CC(C3)C1)C2)Nc1ncc(Cl)cc1Cl | 9.52% |
| O=C(Nc1ccc(Cl)cc1C(=O)NCC1CCCO1)c1ccco1 (stereo not drawn) | 82.6% |
| CS(=O)(=O)N1CCC(C(=O)Nc2ccc(OCc3ccccc3)cc2)CC1 | 88% |
| CC(C)c1cc(C(N)=O)c(NC(=O)C2CCC2)s1 | 103% |
| COc1cc(C2NC(=O)NC(C)=C2C(=O)OC2CCCC(C)C2)ccc1O (stereo not drawn) | 168% |
| COc1ccc(NC(=O)c2ccc(C(=O)c3ccccc3)o2)cc1 | 87.5% |
| Cc1cc(C)cc(OCC(O)CN2CCN(Cc3ccc4c(c3)OCO4)CC2)c1 (stereo not drawn) | 47.4% |
| S=C(NCCc1ccccc1)Nc1cccc2cnccc12 | 147% |
| CCOc1ccc(C(=O)OCC(=O)Nc2nc(OC)cc(OC)n2)cc1OCC | 111% |
| COc1ccc(-c2c3c(=O)n(C)c(=O)n(C)c3cn2Cc2cccnc2)cc1 | 75.9% |
| Cc1ccc(Nc2nc(Oc3ccc(=O)[nH]n3)nc(N(C)C)n2)cc1 | 115% |
